CN111499746A
Results are given in words; binding and its absence hold for the method and conditions named. Some results given as binding are weak or reduced against the parent protein; the word gives no strength.

Amino acid sequences for entries named in this document (tags omitted). Residues count along the entry.
UniProt P60568, residues 21-153: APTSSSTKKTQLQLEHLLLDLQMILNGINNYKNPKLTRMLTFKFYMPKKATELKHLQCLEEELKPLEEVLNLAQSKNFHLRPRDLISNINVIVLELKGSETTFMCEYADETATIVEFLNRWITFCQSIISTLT

Tests used:
[1] = biological target: 重组人IL-2蛋白 (human) (UniProt P60568); test: sandwich ELISA, A coated at 5 ug/ml as capture, biotinylated B at 5 ug/ml as detection, recombinant human IL-2 titrated
[2] = biological target: PBMC经刺激之后分泌的内源性人IL-2蛋白 (human) (UniProt P60568); test: sandwich ELISA on supernatant of PBMC stimulated with PMA and PHA
[3] = biological target: 重组人IL-2蛋白 (human) (UniProt P60568); test: sandwich ELISA specificity test, standard proteins at 10 ng/ml

Measured: binding

B1: 抗人IL-2蛋白兔单克隆抗体A (antibody, V domains shown)
VH: QSVAESGGRLVTPGTPLTLTCTASGFSLTTYAMSWVRQAPGKGLEWIAIIYIDGTTYYGSWAKGRFTISKTSTTVDLRIISPTTEDTATYFCAKWYVGEMDLWGPGTLVTVSS
VL: DIVMTQTPASVEAAVGGTVTINCQASQSVYRDNYLAWYQQKPGQRPKLLIYGTSTLASGVSSRFKGSGSGTQFTLTISDLECADAATYYCQSYVYSSTIDNAFGGGTEVVVKG
binds: [1] | [2] | [3]
